No constants are given. Whether binding was seen depends on the method and setting. Binding seen in cells or lysates may run through a third protein. Some entries that bind do so weakly or less than the wild type. Tags and fused reporters may be left off the sequences shown.
Key:
Assay in all cases: co-IP
HA-TEN1 (human) = molecular target: T1, HA-TEN1 (human) (UniProt Q86WV5)
T1 sequence: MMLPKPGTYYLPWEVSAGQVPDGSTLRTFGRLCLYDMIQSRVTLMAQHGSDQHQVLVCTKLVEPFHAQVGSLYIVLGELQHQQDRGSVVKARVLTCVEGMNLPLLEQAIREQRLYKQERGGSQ

[1] = molecular target: T2, FLAG-CTC1 R1193E/R1195E (human) (UniProt Q2NKJ3)
T2 sequence: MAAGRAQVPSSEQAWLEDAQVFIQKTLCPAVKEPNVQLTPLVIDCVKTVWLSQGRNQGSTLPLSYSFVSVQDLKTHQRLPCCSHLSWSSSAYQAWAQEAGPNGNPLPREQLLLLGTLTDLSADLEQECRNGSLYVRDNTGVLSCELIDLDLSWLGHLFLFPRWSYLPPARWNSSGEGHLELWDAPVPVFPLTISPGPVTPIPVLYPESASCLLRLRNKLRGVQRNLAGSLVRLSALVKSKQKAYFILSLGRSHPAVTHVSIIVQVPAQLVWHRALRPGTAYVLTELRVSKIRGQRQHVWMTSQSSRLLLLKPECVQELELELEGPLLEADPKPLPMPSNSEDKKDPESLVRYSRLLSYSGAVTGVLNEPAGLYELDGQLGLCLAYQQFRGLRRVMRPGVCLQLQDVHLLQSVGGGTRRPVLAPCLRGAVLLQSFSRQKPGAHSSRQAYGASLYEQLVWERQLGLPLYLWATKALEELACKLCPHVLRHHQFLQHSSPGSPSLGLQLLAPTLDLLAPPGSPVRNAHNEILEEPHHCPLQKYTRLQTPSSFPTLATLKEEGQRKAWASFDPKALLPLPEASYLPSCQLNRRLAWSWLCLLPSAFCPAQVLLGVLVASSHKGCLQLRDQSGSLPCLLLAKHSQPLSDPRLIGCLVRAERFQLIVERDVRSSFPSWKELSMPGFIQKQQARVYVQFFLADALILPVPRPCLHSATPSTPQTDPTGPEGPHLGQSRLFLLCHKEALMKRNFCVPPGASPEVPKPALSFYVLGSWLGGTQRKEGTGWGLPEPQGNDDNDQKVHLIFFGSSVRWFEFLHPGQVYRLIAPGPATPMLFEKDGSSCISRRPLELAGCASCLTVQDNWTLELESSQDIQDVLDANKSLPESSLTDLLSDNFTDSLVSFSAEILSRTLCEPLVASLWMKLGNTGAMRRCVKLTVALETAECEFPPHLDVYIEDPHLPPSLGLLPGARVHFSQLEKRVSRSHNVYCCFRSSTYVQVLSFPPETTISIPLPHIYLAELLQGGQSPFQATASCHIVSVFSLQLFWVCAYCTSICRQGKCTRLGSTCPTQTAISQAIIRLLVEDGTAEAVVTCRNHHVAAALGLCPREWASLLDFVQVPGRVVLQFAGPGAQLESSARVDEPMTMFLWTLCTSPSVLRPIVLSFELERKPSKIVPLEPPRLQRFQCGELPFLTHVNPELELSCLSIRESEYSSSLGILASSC

[2] = molecular target: T3, FLAG-CTC1 V967A/S979A/H980A (human) (UniProt Q2NKJ3)
T3 sequence: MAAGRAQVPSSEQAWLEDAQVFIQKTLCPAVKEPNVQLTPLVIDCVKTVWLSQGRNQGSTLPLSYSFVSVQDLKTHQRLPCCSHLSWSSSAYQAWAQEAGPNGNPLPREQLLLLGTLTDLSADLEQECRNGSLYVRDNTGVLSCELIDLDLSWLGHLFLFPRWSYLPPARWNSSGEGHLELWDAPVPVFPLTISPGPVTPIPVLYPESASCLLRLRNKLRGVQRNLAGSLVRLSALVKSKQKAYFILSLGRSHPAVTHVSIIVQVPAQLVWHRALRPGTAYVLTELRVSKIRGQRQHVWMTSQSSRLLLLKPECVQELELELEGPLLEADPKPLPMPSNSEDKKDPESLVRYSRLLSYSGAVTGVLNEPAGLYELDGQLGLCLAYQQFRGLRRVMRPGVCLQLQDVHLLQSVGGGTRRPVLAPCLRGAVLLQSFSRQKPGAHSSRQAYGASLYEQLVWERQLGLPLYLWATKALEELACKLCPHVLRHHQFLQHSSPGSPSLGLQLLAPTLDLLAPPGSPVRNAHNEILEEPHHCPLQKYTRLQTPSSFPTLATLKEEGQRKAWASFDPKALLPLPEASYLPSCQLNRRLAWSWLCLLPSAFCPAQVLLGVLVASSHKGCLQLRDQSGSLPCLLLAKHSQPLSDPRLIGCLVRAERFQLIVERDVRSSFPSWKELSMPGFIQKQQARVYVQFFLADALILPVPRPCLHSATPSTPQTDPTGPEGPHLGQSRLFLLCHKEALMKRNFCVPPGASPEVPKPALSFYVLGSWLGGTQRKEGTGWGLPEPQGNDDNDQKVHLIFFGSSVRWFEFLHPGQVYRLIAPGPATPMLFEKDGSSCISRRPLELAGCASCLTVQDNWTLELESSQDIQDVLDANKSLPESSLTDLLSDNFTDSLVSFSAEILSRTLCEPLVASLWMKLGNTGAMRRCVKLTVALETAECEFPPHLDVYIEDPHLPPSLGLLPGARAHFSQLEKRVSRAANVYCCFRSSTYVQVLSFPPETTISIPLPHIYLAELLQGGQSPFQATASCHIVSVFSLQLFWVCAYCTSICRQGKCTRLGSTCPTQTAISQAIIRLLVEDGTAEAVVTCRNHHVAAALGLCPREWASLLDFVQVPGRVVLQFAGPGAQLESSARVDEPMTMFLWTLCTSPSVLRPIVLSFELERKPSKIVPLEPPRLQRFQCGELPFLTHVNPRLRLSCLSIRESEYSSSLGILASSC

[3] = molecular target: T4, FLAG-CTC1 K1164E/K1167E (human) (UniProt Q2NKJ3)
T4 sequence: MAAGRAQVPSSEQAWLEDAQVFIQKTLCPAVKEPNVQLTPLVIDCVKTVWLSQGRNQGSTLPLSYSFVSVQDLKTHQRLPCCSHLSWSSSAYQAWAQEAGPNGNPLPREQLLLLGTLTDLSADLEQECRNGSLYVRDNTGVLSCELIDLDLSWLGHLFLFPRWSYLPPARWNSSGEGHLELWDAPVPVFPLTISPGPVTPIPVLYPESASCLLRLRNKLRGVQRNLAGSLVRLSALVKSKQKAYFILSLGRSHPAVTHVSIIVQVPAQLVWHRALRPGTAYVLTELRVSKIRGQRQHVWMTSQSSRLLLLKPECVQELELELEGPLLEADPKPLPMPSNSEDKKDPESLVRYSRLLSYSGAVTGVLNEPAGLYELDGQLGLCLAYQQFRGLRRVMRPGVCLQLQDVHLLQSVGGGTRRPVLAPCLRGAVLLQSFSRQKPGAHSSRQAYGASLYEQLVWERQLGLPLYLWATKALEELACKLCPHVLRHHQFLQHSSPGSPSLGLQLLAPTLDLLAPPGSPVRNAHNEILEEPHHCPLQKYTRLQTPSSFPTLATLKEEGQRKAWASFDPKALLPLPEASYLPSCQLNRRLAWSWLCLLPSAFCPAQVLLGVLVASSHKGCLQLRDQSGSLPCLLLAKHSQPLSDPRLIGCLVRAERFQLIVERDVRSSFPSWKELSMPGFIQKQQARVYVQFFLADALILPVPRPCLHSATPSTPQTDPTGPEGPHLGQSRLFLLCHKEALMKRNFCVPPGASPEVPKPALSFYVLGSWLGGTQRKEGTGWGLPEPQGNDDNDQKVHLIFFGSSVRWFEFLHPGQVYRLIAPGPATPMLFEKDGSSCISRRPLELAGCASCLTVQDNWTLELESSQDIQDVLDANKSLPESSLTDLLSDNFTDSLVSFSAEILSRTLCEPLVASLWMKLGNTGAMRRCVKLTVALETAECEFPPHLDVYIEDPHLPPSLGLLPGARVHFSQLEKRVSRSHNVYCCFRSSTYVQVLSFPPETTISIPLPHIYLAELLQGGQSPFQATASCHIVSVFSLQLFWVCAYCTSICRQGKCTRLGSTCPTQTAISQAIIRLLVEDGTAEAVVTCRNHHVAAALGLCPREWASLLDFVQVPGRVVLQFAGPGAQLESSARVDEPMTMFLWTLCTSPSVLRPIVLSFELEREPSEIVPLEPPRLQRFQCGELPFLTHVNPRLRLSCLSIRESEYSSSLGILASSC

Measured: binding

B1: Myc-STN1 (protein, UniProt Q9H668 1-368)
chain: MQPGSSRCEEETPSLLWGLDPVFLAFAKLYIRDILDMKESRQVPGVFLYNGHPIKQVDVLGTVIGVRERDAFYSYGVDDSTGVINCICWKKLNTESVSAAPSAARELSLTSQLKKLQETIEQKTKIEIGDTIRVRGSIRTYREEREIHATTYYKVDDPVWNIQIARMLELPTIYRKVYDQPFHSSALEKEEALSNPGALDLPSLTSLLSEKAKEFLMENRVQSFYQQELEMVESLLSLANQPVIHSASSDQVNFKKDTTSKAIHSIFKNAIQLLQEKGLVFQKDDGFDNLYYVTREDKDLHRKIHRIIQQDCQKPNHMEKGCHFLHILACARLSIRPGLSEAVLQQVLELLEDQSDIVSTMEHYYTAF
binds: HA-TEN1 (human) | [1] | [2] | [3]

Reference: article doi:10.1101/815886
